Laboratory results as given in PMC3733129.

The chains behind the UniProt entries cited, without tags or fusion partners. Where a name states a change or a piece, a line headed by the entry shows the natural chain unless it says otherwise.
UniProt P49916: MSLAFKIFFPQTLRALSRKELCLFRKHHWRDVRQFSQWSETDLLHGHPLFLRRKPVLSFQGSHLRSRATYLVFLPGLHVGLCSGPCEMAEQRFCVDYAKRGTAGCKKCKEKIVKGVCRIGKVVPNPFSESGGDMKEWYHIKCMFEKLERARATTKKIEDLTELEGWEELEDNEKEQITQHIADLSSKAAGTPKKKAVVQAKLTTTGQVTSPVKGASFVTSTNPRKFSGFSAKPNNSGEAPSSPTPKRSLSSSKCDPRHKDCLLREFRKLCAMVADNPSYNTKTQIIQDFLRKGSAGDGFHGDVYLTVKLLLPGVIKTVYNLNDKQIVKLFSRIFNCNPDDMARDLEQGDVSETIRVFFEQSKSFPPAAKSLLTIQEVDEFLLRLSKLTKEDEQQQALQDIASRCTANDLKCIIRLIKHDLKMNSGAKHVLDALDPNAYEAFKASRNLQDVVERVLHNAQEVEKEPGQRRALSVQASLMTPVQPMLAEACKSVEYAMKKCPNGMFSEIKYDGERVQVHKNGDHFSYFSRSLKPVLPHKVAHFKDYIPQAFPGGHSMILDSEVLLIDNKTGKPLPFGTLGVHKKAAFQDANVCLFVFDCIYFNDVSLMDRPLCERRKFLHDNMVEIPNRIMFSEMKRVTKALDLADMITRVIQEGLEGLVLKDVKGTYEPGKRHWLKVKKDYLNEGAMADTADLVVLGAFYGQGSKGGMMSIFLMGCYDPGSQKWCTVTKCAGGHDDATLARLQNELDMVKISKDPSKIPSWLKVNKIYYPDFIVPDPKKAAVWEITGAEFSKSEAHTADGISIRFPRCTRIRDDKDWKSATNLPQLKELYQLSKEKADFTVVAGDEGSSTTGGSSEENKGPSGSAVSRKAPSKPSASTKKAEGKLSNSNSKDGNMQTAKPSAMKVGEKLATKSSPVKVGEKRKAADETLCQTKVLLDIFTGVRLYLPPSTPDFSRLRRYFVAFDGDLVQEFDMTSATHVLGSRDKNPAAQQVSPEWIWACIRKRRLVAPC

Target: Recombinant wild-type (WT) NEIL1 (human) (UniProt Q96FI4)
Test: far-Western, overlay or dot blot; WT NEIL1 and N311 (40 pmol) on nitrocellulose after 12% SDS-PAGE, denatured in situ with 6M guanidine-HCl and renatured; membrane incubated with Polβ, LigIIIα or XRCC1 (10 pmol/mL) in PBS, 0.5% nonfat dried milk, 0.05% Tween 20, 10 mM TMAO, 1 mM DTT for 3 h; immunoblotting; both purified

“DNA ligase IIIα (LigIIIα), recombinant (from UniProt P49916) (enzyme)” was tested, and the binding was “binds”.

Results are given in words; binding and its absence hold for the method and conditions named. Binding calls can cover weak binding; strength is not graded here.
